This is an account of results in PMC5438710.

For this experiment, the target named is Myc-tagged p53 (human) (UniProt P04637). Put plainly: co-IP; Myc-tagged p53 precipitated with anti-Myc antibody and Protein A-agarose from 1 mg lysate of transfected MCF-7 cells (with and without NDRG2 overexpression, ADR treatment), 4°C overnight, three washes with lysis buffer; immunoblot with Bad antibody.

Results are given in words; binding and its absence hold for the method and conditions named. Binding seen in cells or lysates may run through a third protein. Some results given as binding are weak or reduced against the parent protein; the word gives no strength.

B1: Bad (protein, UniProt Q92934 1-168)
chain: MFQIPEFEPSEQEDSSSAERGLGPSPAGDGPSGSGKHHRQAPGLLWDASHQQEQPTSSSHHGGAGAVEIRSRHSSYPAGTEDDEGMGEEPSPFRGRSRSAPPNLWAAQRYGRELRRMSDEFVDSFKKGLPRPKSAGTATQMRQSSSWTRVFQSWWDRNLGRGSSAPSQ
With B1, the binding entry is listed as “binds”.
